Experimental findings from the supplement of paper PMC11237882 are described below.

T1: Homer1 EVH1 domain
T1 chain: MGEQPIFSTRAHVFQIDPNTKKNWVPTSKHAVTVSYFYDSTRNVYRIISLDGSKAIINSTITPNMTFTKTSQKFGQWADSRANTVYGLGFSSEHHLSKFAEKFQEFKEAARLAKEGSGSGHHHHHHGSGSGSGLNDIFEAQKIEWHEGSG

B1: unnamed (peptide)
chain: PLCLYVVVGVSLLLAGIISLNRVRIEIPLEKENQDK
B2: unnamed (peptide)
chain: MAGRGFSWGPGHLNEDNARFLLLAALIVLYLLGGAA
B3: unnamed (peptide)
chain: LGILEGIGILAVITNAFVIAITSDYIPRFVYEYKYG
B4: unnamed (peptide)
chain: NYVFKNALRLGTFSAVLVTYAASALLHGFSFHLAAV
B5: unnamed (peptide)
chain: IAQGPASLYYYWVPLLTVIFGSYLIAHGFFSVYAMC
B6: unnamed (peptide)
chain: KKFDTGDGMFLQWVLCAAIWLVALVVNLILHCPKFW
B7: unnamed (peptide)
chain: NYLQIDEEEYGGTWELTKEGFMTSFALFMVIWIIFY
B8: unnamed (peptide)
chain: ACLAGIVFILSGLCSMTGCSLYANKITTEFFDPLFV
B9: unnamed (peptide)
chain: AIQNVSFDISIVSLISLIWSLAILLLSKKYKQLPHM
B10: unnamed (peptide)
chain: LFLGIITAAVLGGFKDMNPTLPALNCSVENTHPTVS
B11: unnamed (peptide)
chain: SDIEYLDFYKPVVWFWILVGLAYFAAVLSMIGDWLR
B12: unnamed (peptide)
chain: FTGFPQLQDGSLLYFFPLLFIYTFIIIDNLLIFSAV
B13: unnamed (peptide)
chain: MGHLSAPLHRVRVPWQGLLLTASLLTFWNPPTTAQL
B14: unnamed (peptide)
chain: VLTATVLNVYASIFLITALSVARYWVVAMAAGPGTH
B15: unnamed (peptide)
chain: TGFIGLDIIASLCNMIMGLTLITLCTWAYIRYSGEY
B16: unnamed (peptide)
chain: KTRHPRKIDLRARYWAFLFDNLRRAVDEIYVTCESD
B17: unnamed (peptide)
chain: PAIGAYLGRVYGDSLMVVLATAIALLDICFILVAVP
B18: unnamed (peptide)
chain: MYAPPEPIIDYNMLVIFILAVGTVAAGGYWAGLTEA
B19: unnamed (peptide)
chain: VSEPIRWKLLMLGLELLFGFFIPLMFMIFCYTFIVK
B20: unnamed (peptide)
chain: PRNDDIFKIIMAIVLFFFFSWIPHQIFTFLDVLIQL
B21: unnamed (peptide)
chain: PALALNQVTGFDLWGSVFATGIICTFYCTLGGLKAD
B22: unnamed (peptide)
chain: RQSPRRIKPVRIIPSSKRTDATIAKQLLQRAKKGAQ
B23: unnamed (peptide)
chain: MQKLQLCVYIYLFMLIVAGPVDLNENSEQKENVEKE
B24: unnamed (peptide)
chain: WMQGLIAVAVFLVLVAIAFAVNHFWCQEEPEPAHMI
B25: unnamed (peptide)
chain: LGEDKFQWLAGLAPPSLFARAMQVLVTAISPGRFPK
B26: unnamed (peptide)
chain: MRQRLLPSVTSLLLVALLFPGSSQARHVNPSATEAL
B27: unnamed (peptide)
chain: NRTEPEVLCSIIAGLLHFLYPACFTWMLLEGLHLFL
B28: unnamed (peptide)
chain: VQQKNSLQSESGNLPLWLHKFFPYILLLFAILLYLP
B29: unnamed (peptide)
chain: PQVGNLGLLFMLLFFIFAALGVELFGDLECDETHPW
B30: unnamed (peptide)
chain: MDNRFATTFVIACVLSLISTIYMAASIGTDFWYEYR
B31: unnamed (peptide)
chain: SPYNLAYKYNFEYSVVFNMVLWIMIALALAVIITSY
B32: unnamed (peptide)
chain: YVLYYLAIVGHSLSIFTLVISLGIFVFFRSLGCQRV
B33: unnamed (peptide)
chain: MPPSGLRLLLLLLPLLWLLVLTPGRPAAGLSTCKTN
B34: unnamed (peptide)
chain: PVVIGIPAGAVFILGTLLLWLCQAQKKPFTPAPAPP
B35: unnamed (peptide)
chain: MSPVFPMLTVLTMFYYICLRRRARTATRGEMMNTHR
B36: unnamed (peptide)
chain: MGLFDRGVQMLLTTVGAFAAFSLMTIAVGTDYWLYS
B37: unnamed (peptide)
chain: TITNILALYTGIMSSFRSVQCFCIYTGMTLLFCYFY
B38: unnamed (peptide)
chain: MGSGRRALSAVPAVLLVLTLPGLPVWAQNDTEPIVL
B39: unnamed (peptide)
chain: DDILILTVRLAVIVAVILTVPVLFFTDRSSLFELAK
B40: unnamed (peptide)
chain: SCETILLNSPGPFPFIQDNISFYATIGVCLLFIVVL
B41: unnamed (peptide)
chain: VSATTMLTLWALAVMLAVEEALGQLELADRPSLIPT
B42: unnamed (peptide)
chain: WVHVLVPMGFVIGCYLDRKSDERLTAFRNKSMLFKR
B43: unnamed (peptide)
chain: IFPANPANISVALRALGSSYTIPEAWLLLANVVVVL
B44: unnamed (peptide)
chain: MTEAWVGSFLIIILFLLQTETTLGLSSYQQKSISLY

This is one part of the list. Values are worked out from sequencing counts and are noisy.

The test deals with T1, Homer1 EVH1 domain. The experiment in a line: enrichment score (AUC of log2 frequency ratio across FACS sorting rounds) (log2 AUC); higher = stronger enrichment for Homer1 EVH1 binding.
Consider B1, for which the enrichment score is 2.88. Turning to B2, the enrichment score amounted to 3.74.

As to B3, the enrichment score came to 2.96. On to B4, for which the enrichment score was 0.721. Take B5: the enrichment score came out at 2.42. As for B6, the enrichment score was -0.0704. In the case of B7, the enrichment score came to 4.26. As for B8, the enrichment score was found to be 0.524. Take B9: the enrichment score is 2.68.

In the case of B10, the enrichment score came to 0.138. In the case of B11, the enrichment score was 4.18.

Turning to B12, the enrichment score is -1.54.

With B13, the enrichment score is -1.15.

Turning to B14, the enrichment score turned out to be 3.82. Consider B15, for which the enrichment score worked out at 3.44. B16: the enrichment score came out at 1.39. On to B17, for which the enrichment score was 2.84. The value for B18 was 5.15; that for B19 was -0.0959. As for B20, the enrichment score is -5.09. Regarding B21, the enrichment score is -0.358. The value for B22 was 2.46; that for B23 was 0.469; that for B24 was 2.59.

B25: the enrichment score came out at 3.03. On to B26, for which the enrichment score came out at 3.02. In the case of B27, the enrichment score is -0.326. The value for B28 was 0.523; that for B29 was 3.15. B30: the enrichment score turned out to be 3.3. The value for B31 was 2.28. In the case of B32, the enrichment score was found to be 1.4. The value for B33 was 2.89; that for B34 was 1.72; that for B35 was 2.35. Consider B36, for which the enrichment score worked out at 3.46. Take B37: the enrichment score was 0.0682.

For B38, the enrichment score was found to be 4. The value for B39 was -1.7; that for B40 was -0.668. Consider B41, for which the enrichment score was 3.65. The value for B42 was 3.24; that for B43 was -0.707; that for B44 was 2.16.
